{"source": "patent US20240336680A1", "binders": {"B1": {"name": "T158S2 (anti-CLDN18.2 mouse hybridoma antibody) (antibody, V domains shown)", "VH": "EVKLVESGGGLVQPGGSLKLSCATSGFTFSDYYMFWIRQTPEKRLEWVASISDGGGDTYYPDTVKGRFTISRDNAKNTLYLQMSRLKSEDTAMYYCARHRGSLDYWGQGTTLTVSS", "VL": "DIVLTQSPASLAVSLGQRATISCRASESVDNYGFSFLHWYQQKPGQPPKLLIYRASNLASGIPARFSGSGSRTDFTLTINPVETDDVATYYCQQSNQGPLTFGAGTKLELK"}}, "key": {"[1]": {"biological_target": "T1, human CLDN18.2EC1 (extra-cellular domain 1) human Fc protein (human) (UniProt P56856)", "T1 sequence (looked up)": "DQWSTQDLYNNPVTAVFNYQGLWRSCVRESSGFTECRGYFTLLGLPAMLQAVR", "assay": "ELISA, human CLDN18.2EC1-huFc coated at 1 ug/ml, HRP goat anti-mouse IgG, OD 450 nm"}, "[2]": {"biological_target": "T1, human CLDN18.2EC1 (extra-cellular domain 1) human Fc protein (human)", "assay": "ELISA, plate coated with human CLDN18.2EC1-huFc at 1 µg/ml, five-fold dilutions from 20 µg/ml"}}, "note": "These are yes or no findings as the source states them, for the method shown. Some entries that bind do so weakly or less than the wild type. Tags and fused reporters may be left off the sequences shown."}
{"binder": "B1", "values": [{"measurement": "binding", "setting": "[1]", "value": "binds"}, {"measurement": "binding", "setting": "[2]", "value": "binds"}]}
